Assay results taken from PMC9848475.
These are yes or no findings as the source states them, for the method shown. In cells and extracts the contact can be indirect. For some assays here: Where a sequence is shown, tags or fusion partners need not be part of it.

Chains of the proteins cited; added tags and fusions are not shown. Lines headed by an entry give the natural chain unless they say otherwise; changes in a name come on top.
UniProt Q9QZ85: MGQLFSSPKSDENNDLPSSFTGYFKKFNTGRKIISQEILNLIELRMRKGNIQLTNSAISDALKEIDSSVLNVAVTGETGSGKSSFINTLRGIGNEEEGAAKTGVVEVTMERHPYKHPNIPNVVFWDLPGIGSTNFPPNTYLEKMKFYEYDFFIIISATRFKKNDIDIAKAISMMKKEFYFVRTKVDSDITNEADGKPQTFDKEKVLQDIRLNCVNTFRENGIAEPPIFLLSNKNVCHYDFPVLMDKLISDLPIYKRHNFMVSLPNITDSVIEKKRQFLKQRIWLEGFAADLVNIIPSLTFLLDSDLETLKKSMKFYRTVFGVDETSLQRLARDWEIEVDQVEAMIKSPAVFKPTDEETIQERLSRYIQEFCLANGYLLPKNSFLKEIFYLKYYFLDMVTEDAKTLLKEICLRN
UniProt S8F1L0: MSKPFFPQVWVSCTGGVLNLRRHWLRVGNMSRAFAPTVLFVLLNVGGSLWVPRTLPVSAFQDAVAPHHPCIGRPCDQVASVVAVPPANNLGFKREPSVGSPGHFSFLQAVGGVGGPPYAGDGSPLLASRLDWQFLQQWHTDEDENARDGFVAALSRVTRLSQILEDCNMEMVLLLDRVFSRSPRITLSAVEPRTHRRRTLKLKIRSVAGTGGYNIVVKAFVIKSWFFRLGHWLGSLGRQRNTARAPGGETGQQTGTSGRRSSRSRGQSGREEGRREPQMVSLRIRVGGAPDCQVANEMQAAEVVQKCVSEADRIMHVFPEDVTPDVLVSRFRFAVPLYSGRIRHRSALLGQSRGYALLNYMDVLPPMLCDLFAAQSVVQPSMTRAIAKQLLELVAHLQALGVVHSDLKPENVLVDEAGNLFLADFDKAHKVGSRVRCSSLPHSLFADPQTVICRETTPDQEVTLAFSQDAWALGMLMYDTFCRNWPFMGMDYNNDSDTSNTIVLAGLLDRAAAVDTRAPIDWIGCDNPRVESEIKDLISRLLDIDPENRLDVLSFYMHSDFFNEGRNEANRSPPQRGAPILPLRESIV

Tests used:
[1] = target: Irga6 fused to a fragment of TEM-1 β-lactamase (mouse) (UniProt Q9QZ85); experiment: split reporter; protein-fragment complementation assay with split TEM-1 β-lactamase (BlaN, BlaC fusions) co-transfected in HEK293T; nitrocefin hydrolysis in lysates, absorbance at 495 nm
[2] = target: T1, Irgb6 fused to a fragment of TEM-1 β-lactamase (mouse) (UniProt Q62293); experiment: as above
T1 sequence: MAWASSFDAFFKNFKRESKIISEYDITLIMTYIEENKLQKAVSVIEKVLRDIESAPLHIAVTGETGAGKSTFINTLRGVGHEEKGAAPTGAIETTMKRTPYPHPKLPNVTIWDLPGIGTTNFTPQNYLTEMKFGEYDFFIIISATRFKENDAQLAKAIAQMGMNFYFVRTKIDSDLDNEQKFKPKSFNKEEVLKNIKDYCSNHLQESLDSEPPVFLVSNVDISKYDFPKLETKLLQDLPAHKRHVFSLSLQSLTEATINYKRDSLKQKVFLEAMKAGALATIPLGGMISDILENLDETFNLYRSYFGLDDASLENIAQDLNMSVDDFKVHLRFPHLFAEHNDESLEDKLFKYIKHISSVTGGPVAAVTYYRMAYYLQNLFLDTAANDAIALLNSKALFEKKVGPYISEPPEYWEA

For “T. gondii type I ROP39 fused to the C-terminal fragment of TEM-1 β-lactamase (from UniProt S8F1L0)”, the binding [1] was “no binding” and the binding [2] was “no binding”.
